The subject of this assay is CD2F1 mice, L1210 leukemia ip, survival T/C. Kind of assay: NCI In Vivo Anticancer Drug Screen. Data for tumor model L1210 Leukemia (intraperitoneal) in CD2F1 (CDF1) mice. The note with it: higher T/C = longer survival. The method, boiled down: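 Read-out first: treated-group measurement over vehicle-control measurement, expressed as a ratio. Animals bore a transplanted tumor line and were dosed with compound or vehicle.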

[1] abbreviates: T/C endpoint: mean survival time, dose: 100.0 mg/kg/injection, schedule: Q01DX009 (ip), vehicle: saline with Tween-80.
Setting [2] is: T/C endpoint: mean survival time, dose: 200.0 mg/kg/injection, schedule: Q01DX009 (ip), vehicle: saline with Tween-80.
Setting [3] is: T/C endpoint: mean survival time, dose: 400.0 mg/kg/injection, schedule: Q01DX009 (ip), vehicle: saline with Tween-80.
The mark [4] stands for this setting: T/C endpoint: mean survival time, dose: 200.0 mg/kg/injection, schedule: Q04DX003 (ip), vehicle: saline with Tween-80.
The mark [5] stands for this setting: T/C endpoint: mean survival time, dose: 400.0 mg/kg/injection, schedule: Q04DX003 (ip), vehicle: saline with Tween-80.
[6] abbreviates: T/C endpoint: mean survival time, dose: 100.0 mg/kg/injection, schedule: Q04DX002 (ip), vehicle: saline with Tween-80.

The list does not hold the whole screen: it gathers tests that were run many times, whatever their T/C, doses with no T/C, and many T/C values between a quarter and a half above the control. Other doses and runs of a compound stand elsewhere. T/C gives the treated animals as a percentage of the vehicle group. Some doses have a count of surviving animals in place of a T/C: the source files T/C as zero there, which appears to mark a toxic dose or a test without result, not a measured value. Some doses without a T/C left all or most animals alive at the check, yet need not have been tolerated: the source hardly ever lists a survival T/C far under the control, and the zero likely stands for such cases as well. Counts of survivors are from the toxicity check (mostly the fifth day) where no day follows; animals may have died later. Schedule codes are those of the source, taken here to give the interval after Q, in days (D) or hours (H), and the number of doses after X. Signs of the kind (2×) say how often a value occurs here. Some entries hold several experiments; their values stand side by side, smallest first. For survival time, the PubChem record calls one and a half times the control and up active, and a quarter to a half above the control has no call in these data; cut-offs in other NCI protocols can differ.

With `O=C1C(Br)=C(Br)C(=O)C1(Br)Br`, the survivor count reads like this: under setting [1], 0 of 6; under setting [2], 0 of 6; under setting [3], 0 of 6.

Consider `O=c1ccocc1O`, for which the survivor count (T/C endpoint: mean survival time, dose: 100.0 mg/kg/injection, schedule: Q04DX002 (ip), vehicle: saline) is 3 of 3.

For `C=CCOCC(O)CNCC(O)COCC=C` (centres undefined), the survivor count reads like this: under setting [4], 1 of 6; under setting [5], 0 of 6.

Take `CC(=O)OC1CC2C[CH]([Hg][Cl])C1C2` (centres undefined): the survivor count (T/C endpoint: mean survival time, dose: 100.0 mg/kg/injection, schedule: Q04DX003 (ip), vehicle: saline with Tween-80) was 0 of 3; the survivor count under setting [4] is given as 0 of 3; the survivor count under setting [5] is 0 of 3.

As for `Nc1nc(=S)c2[nH]c(N=Nc3ccc(S(=O)(=O)O)cc3)nc2[nH]1`, the T/C was 138 % of control (T/C endpoint: mean survival time, dose: 25.0 mg/kg/injection, schedule: Q04DX003 (ip), vehicle: Klucel (hydroxypropylcellulose) (HPC)) and 140 % of control (T/C endpoint: mean survival time, dose: 50.0 mg/kg/injection, schedule: Q04DX003 (ip), vehicle: Klucel (hydroxypropylcellulose) (HPC)). The survivor count (T/C endpoint: mean survival time, dose: 100.0 mg/kg/injection, schedule: Q04DX003 (ip), vehicle: Klucel (hydroxypropylcellulose) (HPC)) is listed as 1 of 6.

For the molecule `COc1cc2c(c(OC)c1OC)-c1ccc(SC)c(=O)cc1[C@@H](NC(=O)CCl)CC2`, the survivor count (T/C endpoint: mean survival time, dose: 1.6 mg/kg/injection, schedule: Q01DX009 (ip), vehicle: water) is recorded as 2 of 6 and the survivor count (T/C endpoint: mean survival time, dose: 3.2 mg/kg/injection, schedule: Q01DX009 (ip), vehicle: water) is listed as 0 of 6.

Regarding `Cc1ccc([N+](=O)[O-])cc1NC(=O)Nc1onc(C)c1C`, the survivor count (T/C endpoint: mean survival time, dose: 50.0 mg/kg/injection, schedule: Q01DX009 (ip), vehicle: Klucel (hydroxypropylcellulose) (HPC)) was 3 of 3.

`CC(=O)Oc1[nH]c(=O)c2cccc3c2c1CCC3`: the survivor count (T/C endpoint: median survival time, dose: 800.0 mg/kg/injection, schedule: Q01DX009 (ip), vehicle: saline with Tween-80) is 4 of 6.

In the case of `O=c1cc2cccccc-2cc1O`, where the note is “T/C endpoint: mean survival time, dose: 80.0 mg/kg/injection, schedule: Q04DX003 (ip), vehicle: saline with Tween-80”, the survivor count is recorded as 2 of 6.

Turning to `C(#Cc1ccccc1)/C=C/C=C/c1ccccc1`, the survivor count (T/C endpoint: mean survival time, dose: 200.0 mg/kg/injection, schedule: Q01DX001 (ip), vehicle: saline with Tween-80) is 6 of 6 and the survivor count (T/C endpoint: mean survival time, dose: 400.0 mg/kg/injection, schedule: Q01DX001 (ip), vehicle: saline with Tween-80) is on record as 6 of 6.

For `O=C(Nc1ccc(Cl)c(C(F)(F)F)c1)Nc1cc(C(F)(F)F)ccc1Sc1cc(Cl)c(Cl)cc1S(=O)(=O)O`, the survivor count is 1 of 6 under setting [2] and 0 of 6 under setting [3].

Turning to `N#Cc1c(F)c(F)c(NN)c(F)c1F`, the survivor count under setting [5] is listed as 2 of 6.

For the molecule `c1ccc2c3c(c4c(c2c1)CN(C1CCCCC1)CO4)OCN(C1CCCCC1)C3`, the survivor count reads like this: (T/C endpoint: median survival time, dose: 3.0 mg/kg/injection, schedule: Q01DX009 (ip), vehicle: other) 1 of 6; (T/C endpoint: median survival time, dose: 3.12 mg/kg/injection, schedule: Q01DX009 (ip), vehicle: other) 0 of 6; (T/C endpoint: median survival time, dose: 6.25 mg/kg/injection, schedule: Q01DX009 (ip), vehicle: other) 0 of 6; (T/C endpoint: median survival time, dose: 12.5 mg/kg/injection, schedule: Q01DX009 (ip), vehicle: other) 0 of 6; (T/C endpoint: median survival time, dose: 25.0 mg/kg/injection, schedule: Q01DX009 (ip), vehicle: other) 0 of 6; (T/C endpoint: median survival time, dose: 50.0 mg/kg/injection, schedule: Q01DX009 (ip), vehicle: other) 0 of 6.

Take `CCOC(=O)c1cnc2c(cnn2CC)c1NN=C(C)C`: for the setting “T/C endpoint: mean survival time, dose: 400.0 mg/kg/injection, schedule: Q04DX003 (ip), vehicle: saline”, the survivor count is reported as 1 of 6.

Consider `O=S(=O)(/C=C\c1ccccc1)/C=C/c1ccccc1`, for which, under setting [4], the survivor count was 6 of 6.

Regarding `COc1ccccc1N1CCCSC1=Nc1ccccc1`, the survivor count (T/C endpoint: mean survival time, dose: 400.0 mg/kg/injection, schedule: Q04DX002 (ip), vehicle: saline) is listed as 0 of 3.

As to `c1ccc([Te][Te]c2ccccc2)cc1`, the survivor count is, setting by setting: (T/C endpoint: median survival time, dose: 100.0 mg/kg/injection, schedule: Q01DX009 (ip), vehicle: saline with Tween-80) 4 of 6; (T/C endpoint: median survival time, dose: 200.0 mg/kg/injection, schedule: Q01DX009 (ip), vehicle: saline with Tween-80) 0 of 6.

For `O=C1c2ccccc2C(=O)c2c(NCCNCCO)ccc(O)c21`, the T/C reads like this: (T/C endpoint: mean survival time, dose: 1.88 mg/kg/injection, schedule: Q01DX009 (ip), vehicle: saline) 136 % of control; (T/C endpoint: mean survival time, dose: 3.75 mg/kg/injection, schedule: Q01DX009 (ip), vehicle: saline) 147 % of control; (T/C endpoint: mean survival time, dose: 20.0 mg/kg/injection, schedule: Q01DX009 (ip), vehicle: suspension in saline) 125 % of control; (T/C endpoint: mean survival time, dose: 40.0 mg/kg/injection, schedule: Q01DX009 (ip), vehicle: suspension in saline) 146 % of control; (T/C endpoint: median survival time, dose: 10.0 mg/kg/injection, schedule: Q01DX009 (ip), vehicle: suspension in saline) 138 % of control; (T/C endpoint: median survival time, dose: 20.0 mg/kg/injection, schedule: Q01DX009 (ip), vehicle: suspension in saline) 126 % of control. Further, the survivor count (T/C endpoint: mean survival time, dose: 30.0 mg/kg/injection, schedule: Q01DX009 (ip), vehicle: saline) is on record as 6 of 6.

`C=C1C(=C)C2C=CC1C1C3C(c4ccccn4)=NN=C(c4ccccn4)C3C21` (centres undefined): the survivor count under setting [6] is 3 of 3.

For the molecule `C1=C(CN2CCCCC2)COc2ccccc21`, the survivor count (T/C endpoint: mean survival time, dose: 300.0 mg/kg/injection, schedule: Q01DX001 (ip), vehicle: saline) is 0 of 6.

On to `CCCCN1C(=O)C(=O)N(c2cc(C)c(C)cc2C)C1=O`, for which the survivor count reads like this: (T/C endpoint: mean survival time, dose: 50.0 mg/kg/injection, schedule: Q01DX009 (ip), vehicle: saline with Tween-80) 3 of 3; under setting [2], 3 of 3.

With `C=C(NC(C)=O)C(=O)O`, the survivor count under setting [3] was 4 of 6.

`Cc1ccc(CCl)cc1`: the survivor count under setting [2] is listed as 2 of 6.

As to `COc1cc(OC)c(NC(=O)OCCOc2ccc(Cl)cc2Cl)cc1Cl`, the survivor count under setting [2] is recorded as 3 of 3.

For `CN(C)P1(=O)OCC(C(C)(C)C)CO1` (centres undefined), the survivor count by setting is: under setting [6], 3 of 3; (T/C endpoint: mean survival time, dose: 200.0 mg/kg/injection, schedule: Q04DX002 (ip), vehicle: saline with Tween-80) 0 of 3 and 2 of 3; (T/C endpoint: mean survival time, dose: 400.0 mg/kg/injection, schedule: Q04DX002 (ip), vehicle: saline with Tween-80) 0 of 3 (2×).

Consider `CCCCCCCCCCCCCCCCCCN1CCOCC1`, for which the survivor count is listed as 1 of 6 under setting [1], 2 of 6 under setting [2] and 0 of 6 under setting [3].

`CCC(C)NCCNCCNC(C)CC` (centres undefined): the survivor count is given as 1 of 6 (T/C endpoint: mean survival time, dose: 100.0 mg/kg/injection, schedule: Q04DX003 (ip), vehicle: saline sonified); 0 of 6 (T/C endpoint: mean survival time, dose: 200.0 mg/kg/injection, schedule: Q04DX003 (ip), vehicle: saline sonified); 0 of 6 (T/C endpoint: mean survival time, dose: 400.0 mg/kg/injection, schedule: Q04DX003 (ip), vehicle: saline sonified).

`C#CCOC1CCCCC1O` (centres undefined): the survivor count is on record as 1 of 6 (T/C endpoint: mean survival time, dose: 200.0 mg/kg/injection, schedule: Q04DX003 (ip), vehicle: acetone) and 0 of 6 (T/C endpoint: mean survival time, dose: 400.0 mg/kg/injection, schedule: Q04DX003 (ip), vehicle: acetone).

Take `FC(F)(F)/C([S-])=C(/[S-])C(F)(F)F.[Ni].[c-]1[c-][c-][cH-][c-]1`: the survivor count is recorded as 3 of 6 (T/C endpoint: mean survival time, dose: 38.0 mg/kg/injection, schedule: Q01DX001 (ip), vehicle: other); 2 of 6 (T/C endpoint: mean survival time, dose: 75.0 mg/kg/injection, schedule: Q01DX001 (ip), vehicle: other); 0 of 6 (T/C endpoint: mean survival time, dose: 150.0 mg/kg/injection, schedule: Q01DX001 (ip), vehicle: other); 0 of 6 (T/C endpoint: mean survival time, dose: 300.0 mg/kg/injection, schedule: Q01DX001 (ip), vehicle: other).

As for `CCCCCCCCCCCCNCCC#N`, the survivor count under setting [5] is recorded as 0 of 6.

For the molecule `OC1C2CCC(C2)C1C(O)(C(F)(F)F)C(F)(F)F` (centres undefined), the survivor count (T/C endpoint: mean survival time, dose: 25.0 mg/kg/injection, schedule: Q04DX003 (ip), vehicle: saline with Tween-80) is 4 of 6.

Source of the values: PubChem BioAssay AID256 (DTP/NCI, 2004).
